According to PubChem BioAssay AID2284387 (EPA ToxCast):
Only results without a clear call are listed here; the source files them as inconclusive. How the source made its calls: active means hit-call score of the fitted dose curve at least 0.9, where 1 is the maximum; inconclusive means response in the unintended direction; inactive means score below 0.9. Where the call is inconclusive, the potency comes from a doubtful curve fit.

By UniProt entry, the sequences of proteins in these tests, tags left out. Where a name states a change or a piece, a line headed by the entry shows the natural chain unless it says otherwise.
UniProt Q03181: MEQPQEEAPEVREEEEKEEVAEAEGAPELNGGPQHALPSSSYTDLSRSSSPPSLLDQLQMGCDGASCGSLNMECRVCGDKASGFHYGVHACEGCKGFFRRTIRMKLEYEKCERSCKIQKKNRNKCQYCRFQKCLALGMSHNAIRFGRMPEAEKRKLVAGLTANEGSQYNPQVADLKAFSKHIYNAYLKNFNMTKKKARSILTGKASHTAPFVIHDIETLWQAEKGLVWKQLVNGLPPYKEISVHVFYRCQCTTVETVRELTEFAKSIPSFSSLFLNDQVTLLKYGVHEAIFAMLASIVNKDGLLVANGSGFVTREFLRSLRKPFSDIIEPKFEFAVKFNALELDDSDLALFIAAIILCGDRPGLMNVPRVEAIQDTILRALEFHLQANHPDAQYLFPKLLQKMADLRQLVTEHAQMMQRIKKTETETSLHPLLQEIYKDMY

molecular target: human Peroxisome Proliferator-activated Receptor delta (PPARd) Agonism, conducted at France lab site, PPARD (gene 5467) (UniProt Q03181); test: ERF_FR_NR_COA_hPPARD: Eurofins (ERF) Nuclear Receptor (NR) Functional Coactivator Assay for human Peroxisome Proliferator-activated Receptor delta (PPARd) Agonism, conducted at France lab site
Experimental: ERF_FR_NR_COA_hPPARD is a biochemical, single-readout assay that uses extracted gene-proteins in a cell-free assay. Measurements were taken 2 hours after chemical dosing in a 384-well plate. See PPARdelta Human NHR Functional Agonist Coactivator Assay, Cerep.ERF_FR_NR_COA_hPPARD is an assay component calculated from the ERF_FR_NR_COA_hPPARD assay. It is designed to measure FRET using a type of binding reporter as detected by fluorescence intensity of GW0742 with fluorimetry technology.Data from the assay component ERF_FR_NR_COA_hPPARD was analyzed at the assay endpoint, ERF_FR_NR_COA_hPPARD, in the positive analysis fitting direction relative to DMSO as the negative control and baseline of activity. […]
Histidine-tagged-PPARdelta (Ligand Binding Domain, 1.7 ul/ml proteins) are mixed with 50 nM biotin-tagged-C33 coactivator and 0.4 ug fluorescence acceptor (anti-histidine antibody coupled-beads) in an incubation buffer containing 20 mM Hepes/NaOH (pH 7.4), 80 mM Nacl, 0.08% Tween 20 and 0.8 mM DTT and 0.08% BSA. […] Thereafter, fluorescence donor (streptavidin coupled-beads) is added at a final concentration of 0.4 ug. Following 120 min incubation at 22C, the signal is measured at lambdaex=680 nm and lambdaem=520 and 620 nm using a microplate reader (EnVision, Perkin Elmer). The results are expressed as a percent of the control response to […] nM GW 0742. […]

SMILES | AC50
O=C(CC(=O)C(F)(F)C(F)(F)C(F)(F)F)c1cccs1 | inconclusive: 5 µM
